# Data from article PMC7836158.
# Molecular target: 3×HA-tagged ORFV ORF047 (pcDNA-3.1–3×HA-ORF047) (Orf virus (strain ORFV/QH01/2010))
# Experiment: co-IP; HEK293T co-transfected with 3×HA-ORF047 and a 3×Flag-tagged host protein; NP-40 lysis buffer, antibody-coated magnetic beads, 4 °C; blots with anti-HA and anti-Flag (methods and legend: anti-FLAG beads; results: HA mAb coated beads)
binder,measurement,value
"MEAALLVEKNLNQALLDLHGLASARGDPHICDFLENHFLDEEV (peptide, UniProt P18686 1-43) [3×Flag-tagged sheep ferritin light chain (pcDNA-3.1–3×Flag-FLC)]",binding,binds

# Results are given in words; binding and its absence hold for the method and conditions named. Binding seen in cells or lysates may run through a third protein. A result given as binding can be weak or reduced; the word gives no strength. Where a sequence is shown, tags or fusion partners need not be part of it.
